Reference: paper PMC10933659
No constants are given. Whether binding was seen depends on the method and setting. Binding seen in cells or lysates may run through a third protein. Some binding calls cover weakened binding; strength is not graded here. Blank lines part the entries; values can stand above or below the substance they belong to.

The chains behind the UniProt entries cited, without tags or fusion partners.
UniProt Q92830: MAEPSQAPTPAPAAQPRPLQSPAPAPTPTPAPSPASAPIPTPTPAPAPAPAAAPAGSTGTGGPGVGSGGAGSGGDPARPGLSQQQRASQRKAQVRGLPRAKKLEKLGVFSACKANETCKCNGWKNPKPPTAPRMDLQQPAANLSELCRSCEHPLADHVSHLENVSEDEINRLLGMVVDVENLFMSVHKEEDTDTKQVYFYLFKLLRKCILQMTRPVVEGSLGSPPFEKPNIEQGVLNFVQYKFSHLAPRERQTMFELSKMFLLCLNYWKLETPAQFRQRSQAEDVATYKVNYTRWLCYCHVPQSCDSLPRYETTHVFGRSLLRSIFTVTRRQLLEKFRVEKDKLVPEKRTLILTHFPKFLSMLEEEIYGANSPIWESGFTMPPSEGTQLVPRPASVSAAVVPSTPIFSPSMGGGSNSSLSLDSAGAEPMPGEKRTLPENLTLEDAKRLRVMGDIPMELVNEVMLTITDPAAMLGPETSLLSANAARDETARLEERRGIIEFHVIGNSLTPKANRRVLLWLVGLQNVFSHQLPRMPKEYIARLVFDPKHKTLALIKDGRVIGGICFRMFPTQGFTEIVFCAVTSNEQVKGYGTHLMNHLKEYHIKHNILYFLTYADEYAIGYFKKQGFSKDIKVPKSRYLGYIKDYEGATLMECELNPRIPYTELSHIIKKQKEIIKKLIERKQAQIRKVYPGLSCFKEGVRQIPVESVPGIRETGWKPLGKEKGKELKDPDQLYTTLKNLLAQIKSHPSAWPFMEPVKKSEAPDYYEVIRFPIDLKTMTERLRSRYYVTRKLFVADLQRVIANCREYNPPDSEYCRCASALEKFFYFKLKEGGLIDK

Assays:
[1] = molecular target: HA-VCP (UniProt P55072); experiment: co-IP; lysate of HEK 293T cells overexpressing HA-VCP and FLAG-KAT2A; precipitated in both directions, western blot
[2] = molecular target: FLAG-KAT2A (not stated (human or mouse cDNA cloned)) (UniProt Q92830); experiment: as above
[3] = molecular target: VCP (human (endogenous in hBMMSC)) (UniProt P55072); experiment: co-IP; endogenous proteins in hBMMSC lysate (RIPA buffer); indicated antibodies or control IgG overnight at 4 °C, protein A/G beads, western blot; cells with or without TNF-α

- binding [1]: binds
Substance: FLAG-KAT2A (from UniProt Q92830 1-837) (enzyme)

- binding [2]: binds
Substance: HA-VCP (from UniProt P55072 1-806)

- binding [3]: binds
Substance: KAT2A (from UniProt Q92830 1-837) (enzyme)
